Results taken from article PMC7819943, “Rice protein-binding microarrays: a tool to detect cis-acting elements near promoter regions in rice”.
The list shows a part of the results.

Protein sequences, listed by entry. Tags and fused reporters are not part of them.
UniProt Q0JBA9, entry or part of it: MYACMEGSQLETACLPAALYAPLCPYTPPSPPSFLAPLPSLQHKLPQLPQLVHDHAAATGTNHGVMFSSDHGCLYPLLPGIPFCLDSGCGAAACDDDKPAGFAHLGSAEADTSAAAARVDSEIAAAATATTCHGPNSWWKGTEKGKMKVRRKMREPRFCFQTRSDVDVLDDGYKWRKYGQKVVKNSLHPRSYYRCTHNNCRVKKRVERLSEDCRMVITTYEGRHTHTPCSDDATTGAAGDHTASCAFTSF

target: OsWRKY34 (Oryza sativa, UniProt Q0JBA9 1-250); assay: protein-binding microarray (RPBM); PBS, 2% BSA, 51.3 ng/ul salmon testes DNA, 50 uM zinc acetate, 200 nM TF, 25 C, 1 h; high values mean tight binding; settings: protein: recombinant; tags: N-terminal polyhistidine and DsRed monomer fusion (pET32a); label: CyDye5-dUTP incorporated in the synthesized complementary strand; 3' TTTTT single-stranded linker to array surface; dsDNA, one strand shown
Outline: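 Ni–NTA purification followed expression in E. coli BL21-CodonPlus of transcription factors fused N-terminally to a polyhistidine tag and DsRed. At 200 nM in PBS with 2% BSA, salmon testes DNA and 50 µM zinc acetate, the protein was incubated for 1 h at 25 °C with a custom Agilent array that had been primer-extended with Cy5-dUTP and blocked with 2% BSA. After washing, the array was read on an Axon 4000B scanner. The binding signal is per-feature fluorescence intensity in arbitrary units.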

Sequence	binding signal
GTGGGTGTCTGTGTCTTTGAGTAGTCGTCATTCAATCGAGCGGAGTCACCTAGTGCAG	9400 fluorescence intensity (a.u.)
ACGTCGCTATTCTTTTGCAACCACGATCCCACGTTCCCATCGGAGTCACCTAGTGCAG	10700 fluorescence intensity (a.u.)
CTCTGTCCGTCCATTCACCCATCCATGTCCATCCATCTATCGGAGTCACCTAGTGCAG	11000 fluorescence intensity (a.u.)
CCACCTCATTTCATCTTAGCTCTTCATTCATTTTCATTTTCGGAGTCACCTAGTGCAG	8630 fluorescence intensity (a.u.)
TGTGGATGGCGGGGCGAGGCGGAATGGGGCGAATGCGGCGCGGAGTCACCTAGTGCAG	8240 fluorescence intensity (a.u.)
GCACACTCGTCCGCTTCCGTCTCATTCTCTCGTGGACGCGCGGAGTCACCTAGTGCAG	9950 fluorescence intensity (a.u.)
AAAGCCACCACACTCCCTCGCTGACCCCAGTGGAGCTGCTCGGAGTCACCTAGTGCAG	8390 fluorescence intensity (a.u.)
CCGCACCTCTCCATCCTACCGCCGCTCGCGCCCCTCTCGCCGGAGTCACCTAGTGCAG	8750 fluorescence intensity (a.u.)
CAGTTTGTACCATATATATATCACAGATTATTCACAGCATCGGAGTCACCTAGTGCAG	8100 fluorescence intensity (a.u.)
GGTGGTGGTTGAGGTTGAGGTTGACGAGGGGTTCTAGGGTCGGAGTCACCTAGTGCAG	9040 fluorescence intensity (a.u.)
AAGCCAGTGAATGCCTCTGTAACTTTTCTTTATTATTCTTCGGAGTCACCTAGTGCAG	8680 fluorescence intensity (a.u.)
GACGAGCCTTATCTCCAATCCGGATTACACATCGCGTCGCCGGAGTCACCTAGTGCAG	10800 fluorescence intensity (a.u.)
CCGTACAACATTAACTCCACCGCCGCCTCCTTTCTTTCCTCGGAGTCACCTAGTGCAG	9250 fluorescence intensity (a.u.)
CTCCAGGTCTCCCACCCGTTGACCCGAGCTCCCCTACTCTCGGAGTCACCTAGTGCAG	11000 fluorescence intensity (a.u.)
GTTAAAACTCTACCTACTTAATTAAGTATTTGCTATTTTTCGGAGTCACCTAGTGCAG	8700 fluorescence intensity (a.u.)
CATCTACAGGTAATCTATATTAAACCCTGGCTATTGAGAACGGAGTCACCTAGTGCAG	8340 fluorescence intensity (a.u.)
GTTGAGGTGGTCGGTAGCTAGGTAGCTAGGCGCGCGCGGCCGGAGTCACCTAGTGCAG	8160 fluorescence intensity (a.u.)
GCTCACCAAACGCATCGCATGGCCCACTTATTTCCGACCACGGAGTCACCTAGTGCAG	8830 fluorescence intensity (a.u.)
AACAAGTCTGACTTATTTGACGACTGATTGGTTGGGGTCACGGAGTCACCTAGTGCAG	8280 fluorescence intensity (a.u.)
GATTCGTTGTTTTTTTTCTTCCTCTTGGTGTGTAGGGATGCGGAGTCACCTAGTGCAG	11000 fluorescence intensity (a.u.)
ATACTGTCATAGGATCTCGAGTACACCTGTTTTACAAGTTCGGAGTCACCTAGTGCAG	8860 fluorescence intensity (a.u.)

As entered above:
Under binding signal, GATTCGTTGTTTTTTTTCTTCCTCTTGGTGTGTAGGGATGCGGAGTCACCTAGTGCAG is entered as 11000 fluorescence intensity (a.u.)
Under binding signal, CATCTACAGGTAATCTATATTAAACCCTGGCTATTGAGAACGGAGTCACCTAGTGCAG is entered as 8340 fluorescence intensity (a.u.)

Carrying on:

Sequence	binding signal
GCTAAACTGTACCCATGTTCTTCAGCATTTCTTTAATCTACGGAGTCACCTAGTGCAG	10400 fluorescence intensity (a.u.)
CCGCACGAGACTGAAGCCTAATCTTTTCGCTTACGTTCATCGGAGTCACCTAGTGCAG	11300 fluorescence intensity (a.u.)
AGCTCATGGATTTCTTCTCACGTGAGGCCCATATGTATTGCGGAGTCACCTAGTGCAG	8660 fluorescence intensity (a.u.)
CGGTTAGATTACATTGGTACCTCATGATATCTCGTACCTCCGGAGTCACCTAGTGCAG	8660 fluorescence intensity (a.u.)
CTATATATAGCCTTTTTTATACATGAAGTTTCTTTATATACGGAGTCACCTAGTGCAG	8330 fluorescence intensity (a.u.)
ACCGTGTCGAGCTATGTCTCCTCATCCTCGCTATGTTTCACGGAGTCACCTAGTGCAG	14800 fluorescence intensity (a.u.)
TCGTTGAACGCGCCCACCAGCTCCGCCACCAGCCGCCCTCCGGAGTCACCTAGTGCAG	9490 fluorescence intensity (a.u.)
ATAATATATAATCAAACAAAAAAATGGACTATAATCTCTCCGGAGTCACCTAGTGCAG	64400 fluorescence intensity (a.u.)
CAACATATTATTTCGCTCTATTTTTATTGTATGTTGCATCCGGAGTCACCTAGTGCAG	11300 fluorescence intensity (a.u.)
CTCAGAATCGTCAATGGCATCGCCTCTCATTTCGCGTCGACGGAGTCACCTAGTGCAG	9320 fluorescence intensity (a.u.)
ACCATCTCTCGCTGCATTTACAGTTTTTTTGGGCCAAATGCGGAGTCACCTAGTGCAG	12500 fluorescence intensity (a.u.)
GATTGGGAGGTATTCCGGTGTTTTTTTGGTGCTAAATTTTCGGAGTCACCTAGTGCAG	9040 fluorescence intensity (a.u.)
TTATTATTTGCATTATTTCCTTAGGGTTTACTCCTGATTTCGGAGTCACCTAGTGCAG	8370 fluorescence intensity (a.u.)
ATCCATCCTGCACAACCGAATCGATTGATGGTCATTTCAACGGAGTCACCTAGTGCAG	8260 fluorescence intensity (a.u.)
ATATACAGATTTCGATCGGCGACGTTAGTGATCAGCTGGGCGGAGTCACCTAGTGCAG	35200 fluorescence intensity (a.u.)
CGTGCATATGGGTCATCCCACTACCATCCCTATTCCCTAACGGAGTCACCTAGTGCAG	8230 fluorescence intensity (a.u.)
TTATTCCTTACTATTCGCGTCTTTTACTAGGGCAGGATATCGGAGTCACCTAGTGCAG	9020 fluorescence intensity (a.u.)
CACCGCCGCCGCCGCCGCCTCCGCTACTCCGTCCACGACTCGGAGTCACCTAGTGCAG	10200 fluorescence intensity (a.u.)
CTGACATATGACCCCATATGTTTTGTTTTTATTTTTTTAACGGAGTCACCTAGTGCAG	8290 fluorescence intensity (a.u.)
AGCTTCTAATCTTGTATTATCCGACCGTACGTATAACTTGCGGAGTCACCTAGTGCAG	8740 fluorescence intensity (a.u.)
CCCGATCCGACGGCTCACATTCACTCTCACCTCACCTGCCCGGAGTCACCTAGTGCAG	8680 fluorescence intensity (a.u.)
